Source: PubChem BioAssay AID1159584 (Peter MacCallum Cancer Centre, 2016)
The whole screen tested about 18,000 reagents; below is an unselected part. Further read-outs or replicates are left out here. The record does not give: the amount of reagent, the time to read-out.

- Test: 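Knock-downs that harm CDH1-null cells more than parental MCF10A cells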 (primary screen)
- System: human MCF10A breast epithelial cells, parental and CDH1-null
- Reagents: siRNA against human genes
- Detection: 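Cell viability by CellTiter-Glo ATP luminescence, each line scaled to the mean of mock wells across plates, then CDH1-null over parental ratio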
- Reading the numbers: CDH1-null / parental viability ratio: higher = CDH1-null cells survive relatively better than parental; CDH1-null viability vs mock: higher = more viable CDH1-null cells

target gene | CDH1-null / parental viability ratio | CDH1-null viability vs mock (fraction of mock)
OSR1 (GeneID 130497) | 1.13 | 0.94
TMEM150C (GeneID 441027) | 1.1 | 0.9
IFT88 (GeneID 8100) | 1.1 | 0.95
MLX (GeneID 6945) | 0.96 | 0.91
HARBI1 (GeneID 283254) | 0.85 | 0.82
SH3GL1 (GeneID 6455) | 1.13 | 0.43
EI24 (GeneID 9538) | 1.45 | 0.84
ARAP2 (GeneID 116984) | 0.92 | 0.96
ULK3 (GeneID 25989) | 1.03 | 0.72
BOP1 (GeneID 23246) | 0.91 | 0.64
PRKAR1A (GeneID 5573) | 0.97 | 0.76
LIMK2 (GeneID 3985) | 0.86 | 0.64
CENPU (GeneID 79682) | 1.1 | 0.88
SENP2 (GeneID 59343) | 1.25 | 0.76
DCAF8L1 (GeneID 139425) | 1.08 | 1.04
ERG28 (GeneID 11161) | 0.76 | 0.7
GRHL3 (GeneID 57822) | 1.08 | 0.67
BCHE (GeneID 590) | 0.93 | 1.06
NUP98 (GeneID 4928) | 0.98 | 0.52
CCDC126 (GeneID 90693) | 0.93 | 0.68
NFE2L3 (GeneID 9603) | 1.09 | 0.59
AFM (GeneID 173) | 0.86 | 0.62
PTPN4 (GeneID 5775) | 1.35 | 0.65
AUTS2 (GeneID 26053) | 1.21 | 0.88
SLC17A7 (GeneID 57030) | 1.06 | 1.03
CAMKV (GeneID 79012) | 0.97 | 0.64
PSMC5 (GeneID 5705) | 1.3 | 0.56
BCL3 (GeneID 602) | 0.72 | 0.58

Reformatted: entries from further up
target gene,CDH1-null / parental viability ratio,CDH1-null viability vs mock (fraction of mock)
BOP1 (GeneID 23246),0.91,0.64
PRKAR1A (GeneID 5573),0.97,0.76
LIMK2 (GeneID 3985),0.86,0.64
CENPU (GeneID 79682),1.1,0.88
